The record followed here is publication PMC10465003, “The AAA-ATPase Yta4/ATAD1 interacts with the mitochondrial divisome to inhibit mitochondrial fission” (PLOS Biology, 2023).

Results are given in words; binding and its absence hold for the method and conditions named. For some of these results: Binding seen in cells or lysates may run through a third protein. Some binding calls cover weakened binding; strength is not graded here. Tags and fused reporters may be left off the sequences shown.

Assay [1] deals with T1, Fis1(a.a. 1–128)-GST (Schizosaccharomyces pombe) (UniProt Q9USZ8).
T1 sequence: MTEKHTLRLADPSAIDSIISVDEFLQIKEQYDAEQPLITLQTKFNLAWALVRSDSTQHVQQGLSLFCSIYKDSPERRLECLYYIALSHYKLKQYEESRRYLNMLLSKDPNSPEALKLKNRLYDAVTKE
As to the kind of experiment: co-purification after co-expression; Fis1(a.a. 1–128)-GST and His-Mdv1(a.a. 1–249) co-expressed in E. coli BL21, purified with glutathione resins in phosphate buffer (150 mM NaCl, 10 mM imidazole, 0.1% Triton X-100).

Assay [2] deals with T2, GFP-Fis1 (Schizosaccharomyces pombe) (UniProt Q9USZ8).
T2 sequence: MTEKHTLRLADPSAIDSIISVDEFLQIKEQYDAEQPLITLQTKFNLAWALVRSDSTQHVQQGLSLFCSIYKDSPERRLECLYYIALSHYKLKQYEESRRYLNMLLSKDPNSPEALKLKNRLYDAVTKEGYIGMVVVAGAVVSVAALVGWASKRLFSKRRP
As to the kind of experiment: co-IP; S. pombe cell lysate in TBS with 0.5% Triton X-100; antibodies against GFP or Dnm1 on Dynabeads protein G, 4°C, 2 h; western blot with antibodies against Myc, GFP and Dnm1.

The target of assay [3] is T3, GFP-Mdv1 (Schizosaccharomyces pombe) (UniProt Q9P7I3).
T3 sequence: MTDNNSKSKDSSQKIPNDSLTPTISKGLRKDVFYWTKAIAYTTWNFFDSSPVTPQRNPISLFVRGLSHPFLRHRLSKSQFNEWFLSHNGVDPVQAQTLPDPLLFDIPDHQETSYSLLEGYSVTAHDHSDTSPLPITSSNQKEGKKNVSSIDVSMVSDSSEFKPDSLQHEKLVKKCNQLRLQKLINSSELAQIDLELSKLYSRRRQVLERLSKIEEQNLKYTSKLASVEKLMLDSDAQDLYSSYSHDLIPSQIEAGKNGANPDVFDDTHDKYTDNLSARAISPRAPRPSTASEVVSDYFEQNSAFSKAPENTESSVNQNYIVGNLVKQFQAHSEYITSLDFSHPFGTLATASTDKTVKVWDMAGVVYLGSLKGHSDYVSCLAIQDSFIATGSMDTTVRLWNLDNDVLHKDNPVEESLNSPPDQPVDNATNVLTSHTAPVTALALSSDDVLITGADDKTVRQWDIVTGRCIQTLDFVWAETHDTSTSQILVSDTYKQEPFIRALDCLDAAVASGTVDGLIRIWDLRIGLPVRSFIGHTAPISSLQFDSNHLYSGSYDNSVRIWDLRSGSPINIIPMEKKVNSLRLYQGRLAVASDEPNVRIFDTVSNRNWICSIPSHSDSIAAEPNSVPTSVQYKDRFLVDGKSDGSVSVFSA
The assay is described as above.

Assay [4] concerns the target T4, endogenous Dnm1 (Schizosaccharomyces pombe (endogenous in S. pombe cells)) (UniProt Q09748).
T4 sequence: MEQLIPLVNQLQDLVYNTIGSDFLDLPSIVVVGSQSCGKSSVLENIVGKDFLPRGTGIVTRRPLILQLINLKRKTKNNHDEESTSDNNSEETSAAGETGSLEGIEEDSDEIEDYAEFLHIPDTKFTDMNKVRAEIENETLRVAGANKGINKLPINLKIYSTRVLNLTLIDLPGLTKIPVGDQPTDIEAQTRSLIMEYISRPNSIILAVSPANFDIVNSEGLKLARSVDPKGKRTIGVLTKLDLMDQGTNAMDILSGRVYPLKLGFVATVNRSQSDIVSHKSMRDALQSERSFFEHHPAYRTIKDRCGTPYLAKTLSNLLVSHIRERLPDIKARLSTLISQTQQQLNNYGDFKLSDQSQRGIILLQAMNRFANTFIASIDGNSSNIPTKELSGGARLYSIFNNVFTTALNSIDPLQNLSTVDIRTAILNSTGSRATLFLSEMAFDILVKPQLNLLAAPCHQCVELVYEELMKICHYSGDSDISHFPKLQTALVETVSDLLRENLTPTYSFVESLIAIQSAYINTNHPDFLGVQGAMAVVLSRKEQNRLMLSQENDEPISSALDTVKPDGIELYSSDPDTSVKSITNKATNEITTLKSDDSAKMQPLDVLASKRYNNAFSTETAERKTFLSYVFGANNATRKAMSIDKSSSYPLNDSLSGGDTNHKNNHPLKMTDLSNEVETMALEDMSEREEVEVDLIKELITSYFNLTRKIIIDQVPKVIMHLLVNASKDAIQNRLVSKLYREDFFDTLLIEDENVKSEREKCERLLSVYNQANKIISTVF
Described as above.

B1: His-Mdv1(1–249) (domain or fragment, UniProt Q9P7I3 1-249)
chain: MTDNNSKSKDSSQKIPNDSLTPTISKGLRKDVFYWTKAIAYTTWNFFDSSPVTPQRNPISLFVRGLSHPFLRHRLSKSQFNEWFLSHNGVDPVQAQTLPDPLLFDIPDHQETSYSLLEGYSVTAHDHSDTSPLPITSSNQKEGKKNVSSIDVSMVSDSSEFKPDSLQHEKLVKKCNQLRLQKLINSSELAQIDLELSKLYSRRRQVLERLSKIEEQNLKYTSKLASVEKLMLDSDAQDLYSSYSHDLIP
For the molecule B1, in assay [1], the binding entry is “binds”.

B2: endogenous Dnm1 (protein, UniProt Q09748 1-781)
chain: MEQLIPLVNQLQDLVYNTIGSDFLDLPSIVVVGSQSCGKSSVLENIVGKDFLPRGTGIVTRRPLILQLINLKRKTKNNHDEESTSDNNSEETSAAGETGSLEGIEEDSDEIEDYAEFLHIPDTKFTDMNKVRAEIENETLRVAGANKGINKLPINLKIYSTRVLNLTLIDLPGLTKIPVGDQPTDIEAQTRSLIMEYISRPNSIILAVSPANFDIVNSEGLKLARSVDPKGKRTIGVLTKLDLMDQGTNAMDILSGRVYPLKLGFVATVNRSQSDIVSHKSMRDALQSERSFFEHHPAYRTIKDRCGTPYLAKTLSNLLVSHIRERLPDIKARLSTLISQTQQQLNNYGDFKLSDQSQRGIILLQAMNRFANTFIASIDGNSSNIPTKELSGGARLYSIFNNVFTTALNSIDPLQNLSTVDIRTAILNSTGSRATLFLSEMAFDILVKPQLNLLAAPCHQCVELVYEELMKICHYSGDSDISHFPKLQTALVETVSDLLRENLTPTYSFVESLIAIQSAYINTNHPDFLGVQGAMAVVLSRKEQNRLMLSQENDEPISSALDTVKPDGIELYSSDPDTSVKSITNKATNEITTLKSDDSAKMQPLDVLASKRYNNAFSTETAERKTFLSYVFGANNATRKAMSIDKSSSYPLNDSLSGGDTNHKNNHPLKMTDLSNEVETMALEDMSEREEVEVDLIKELITSYFNLTRKIIIDQVPKVIMHLLVNASKDAIQNRLVSKLYREDFFDTLLIEDENVKSEREKCERLLSVYNQANKIISTVF
On to B2, for which the binding entry in assay [2] and in assay [3] was “binds” each time.

B3: GFP-Fis1 (protein, UniProt Q9USZ8 1-160)
chain: MTEKHTLRLADPSAIDSIISVDEFLQIKEQYDAEQPLITLQTKFNLAWALVRSDSTQHVQQGLSLFCSIYKDSPERRLECLYYIALSHYKLKQYEESRRYLNMLLSKDPNSPEALKLKNRLYDAVTKEGYIGMVVVAGAVVSVAALVGWASKRLFSKRRP
On to B3, for which, in assay [4], the binding result is “binds”.
